Record: PubChem BioAssay AID1259254 (NCATS, 2017)

- Purpose: 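Gene knock-downs that lead to re-replication, shown by excess G2 DNA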 (primary screen)
- Cell system: human HCT116 colorectal cancer cells
- Knock-down reagent: single siRNA against human genes
- Time to read-out: 3 days
- Measured: 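Imaged Hoechst DNA stain sorts each cell into a cycle phase by DNA amount; per plate, G2 fraction set to 0% for non-targeting and 100% for GMNN siRNA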
- Reading the numbers: G2 robust z-score: higher = more G2 cells, more excess DNA replication
- Hit rule: 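An siRNA counts as active if its G2 robust z-score lies at least 5 MADs above the screen median; here such calls match roughly 38% of GMNN control or more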
In all, the deposit lists about 59,000 reagents; this is a random part of them. About 1,550 of them (2.6%) count as active. 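G2 share is only a proxy for re-replication; each gene was hit by three separate siRNAs, and active genes were retested.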 The numbers tell different reagents against one gene apart. Not all columns of the deposit are shown. Reagent sequences are not shown. Not stated in the record: the amount of reagent.

Knock-down of BCL6B #1 resulted in: G2 robust z-score -0.505; inactive.
BCL6B #2 showed G2 robust z-score -0.389; inactive.
BCL6B #3 showed G2 robust z-score 1.25; inactive.
With knock-down of TRMT2A #1, the record shows G2 robust z-score 1.6; inactive.
TRMT2A #2 showed G2 robust z-score 0.469; inactive.
Against TRMT2A #3, the entry reads G2 robust z-score -0.851; inactive.

Reprinted from above (2 entries):
BCL6B #3: G2 robust z-score = 1.25; activity call = inactive
TRMT2A #1: G2 robust z-score = 1.6; activity call = inactive

The list goes on.
After knock-down of TMEM248 #1, the screen gave G2 robust z-score -0.326; inactive.
TMEM248 #2 scored G2 robust z-score 0.374; inactive.
TMEM248 #3 scored G2 robust z-score 0.225; inactive.
Against FJX1 #1, the entry reads G2 robust z-score 2.4; inactive.
Depletion of FJX1 #2 resulted in: G2 robust z-score -0.516; inactive.
With knock-down of FJX1 #3, the record shows G2 robust z-score 0.00411; inactive.
